Measured values: patent US20190071514A1, “ANTI-CD39 ANTIBODIES” (INNATE PHARMA, priority 2016, published 2019)
Changes are numbered by the printed parent chain. In names and notes the source's numbering stands. No constants are given. Whether binding was seen depends on the method and setting. A result given as binding can be weak or reduced; the word gives no strength.

B1: mAb3 (antibody, human IgG1, V domains shown)
VH: QVQLVQSGSELKKPGASVKVSCKASGYTFTHYGMNWVRQAPGKGLKWMGWINTYTGEPTYADDFKGRFVFSLDTSVSTAYLQISSLKAEDTAVYYCARRRYEGNYVFYYFDYWGQGTTVTVSS
VL: DIQMTQSPSSLSASVGDRVTITCRASENIYSYFSWYQQKPGKAPKLLIYTAKTLAEGVPSRFSGSGSGTDFTLTISSLQPEDFATYYCQHHYVTPYTFGGGTKVEIK
notes: Produced as Fc silent recombinant human IgG1 with heavy chain N297Q (Kabat EU numbering) and huCk constant domain; also called anti-CD39 antibody mAb3
B2: mAb1 (antibody, human IgG1, V domains shown)
VH: B1 VH with K43Q, K46E
VL: B1 VL
notes: Produced as Fc silent recombinant human IgG1 with heavy chain N297Q (Kabat EU numbering) and huCk constant domain; also called anti-CD39 antibody mAb1
B3: mAb4 (antibody, human IgG1, V domains shown)
VH: B1 VH with V2I, T74A
VL: B1 VL
notes: Produced as Fc silent recombinant human IgG1 with heavy chain N297Q (Kabat EU numbering) and huCk constant domain; also called anti-CD39 antibody mAb4
B4: mAb6 (antibody, human IgG1, V domains shown)
VH: B1 VH
VL: B1 VL with I48V
notes: Produced as Fc silent recombinant human IgG1 with heavy chain N297Q (Kabat EU numbering) and huCk constant domain; also called anti-CD39 antibody mAb6
B5: mAb2 (antibody, human IgG1, V domains shown)
VH: B1 VH with K43Q
VL: B1 VL
notes: Produced as Fc silent recombinant human IgG1 with heavy chain N297Q (Kabat EU numbering) and huCk constant domain; also called anti-CD39 antibody mAb2
B6: mAb5 (antibody, human IgG1, V domains shown)
VH: B1 VH with K43Q
VL: B1 VL with I48V
notes: Produced as Fc silent recombinant human IgG1 with heavy chain N297Q (Kabat EU numbering) and huCk constant domain; also called anti-CD39 antibody mAb5
B7: mAb7 (antibody, human IgG1, V domains shown)
VH: B1 VH with V2I, T74A
VL: B1 VL with I48V
notes: Produced as Fc silent recombinant human IgG1 with heavy chain N297Q (Kabat EU numbering) and huCk constant domain; also called anti-CD39 antibody mAb7

target: recombinant human CD39 (vascular isoform) (human); assay: ELISA, recombinant human CD39 coated

binding | Binder
binds | B1
binds | B2
binds | B3
binds | B4
binds | B5
binds | B6
binds | B7
